Protein sequences, listed by entry. Tags and fused reporters are not part of them.
UniProt Q8TEK3: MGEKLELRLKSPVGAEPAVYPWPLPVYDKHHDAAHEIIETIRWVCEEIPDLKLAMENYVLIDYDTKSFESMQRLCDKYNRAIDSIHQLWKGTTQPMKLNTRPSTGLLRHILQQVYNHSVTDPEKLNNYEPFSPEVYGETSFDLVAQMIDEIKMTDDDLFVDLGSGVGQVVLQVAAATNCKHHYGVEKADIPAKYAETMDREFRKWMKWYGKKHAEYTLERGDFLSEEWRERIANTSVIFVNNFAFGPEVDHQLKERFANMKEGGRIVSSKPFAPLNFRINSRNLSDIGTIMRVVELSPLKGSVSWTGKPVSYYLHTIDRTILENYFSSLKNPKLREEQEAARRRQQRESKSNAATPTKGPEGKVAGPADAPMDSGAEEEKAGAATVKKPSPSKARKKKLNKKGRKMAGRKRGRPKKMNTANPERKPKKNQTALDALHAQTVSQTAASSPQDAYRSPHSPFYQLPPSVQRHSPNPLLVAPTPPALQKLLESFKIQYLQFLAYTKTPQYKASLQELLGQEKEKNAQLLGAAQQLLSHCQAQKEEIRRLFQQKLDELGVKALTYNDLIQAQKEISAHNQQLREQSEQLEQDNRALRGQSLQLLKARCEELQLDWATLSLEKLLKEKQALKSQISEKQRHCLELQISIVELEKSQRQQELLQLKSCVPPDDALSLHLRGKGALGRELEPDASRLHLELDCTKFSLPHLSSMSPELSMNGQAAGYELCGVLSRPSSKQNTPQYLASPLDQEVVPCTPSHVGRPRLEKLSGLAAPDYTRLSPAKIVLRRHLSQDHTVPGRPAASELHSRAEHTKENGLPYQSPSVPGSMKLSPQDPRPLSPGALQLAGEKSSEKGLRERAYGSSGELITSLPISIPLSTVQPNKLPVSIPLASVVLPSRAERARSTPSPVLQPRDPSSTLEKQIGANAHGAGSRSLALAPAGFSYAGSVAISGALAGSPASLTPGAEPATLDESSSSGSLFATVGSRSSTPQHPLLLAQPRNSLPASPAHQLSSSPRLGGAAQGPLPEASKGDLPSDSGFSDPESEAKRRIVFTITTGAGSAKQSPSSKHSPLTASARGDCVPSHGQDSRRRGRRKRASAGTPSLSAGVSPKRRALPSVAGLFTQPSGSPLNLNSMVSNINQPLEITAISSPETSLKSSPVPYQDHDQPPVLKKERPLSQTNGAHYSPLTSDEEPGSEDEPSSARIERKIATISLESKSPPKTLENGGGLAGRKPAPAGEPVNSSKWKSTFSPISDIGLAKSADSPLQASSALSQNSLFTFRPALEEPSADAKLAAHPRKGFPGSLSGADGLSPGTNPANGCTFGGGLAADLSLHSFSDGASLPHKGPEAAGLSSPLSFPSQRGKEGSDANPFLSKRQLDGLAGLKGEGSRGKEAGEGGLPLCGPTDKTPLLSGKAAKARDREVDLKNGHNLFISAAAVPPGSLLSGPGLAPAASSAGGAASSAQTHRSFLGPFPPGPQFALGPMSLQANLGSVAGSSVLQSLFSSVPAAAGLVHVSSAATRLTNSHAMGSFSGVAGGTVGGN
UniProt Q91ZW3: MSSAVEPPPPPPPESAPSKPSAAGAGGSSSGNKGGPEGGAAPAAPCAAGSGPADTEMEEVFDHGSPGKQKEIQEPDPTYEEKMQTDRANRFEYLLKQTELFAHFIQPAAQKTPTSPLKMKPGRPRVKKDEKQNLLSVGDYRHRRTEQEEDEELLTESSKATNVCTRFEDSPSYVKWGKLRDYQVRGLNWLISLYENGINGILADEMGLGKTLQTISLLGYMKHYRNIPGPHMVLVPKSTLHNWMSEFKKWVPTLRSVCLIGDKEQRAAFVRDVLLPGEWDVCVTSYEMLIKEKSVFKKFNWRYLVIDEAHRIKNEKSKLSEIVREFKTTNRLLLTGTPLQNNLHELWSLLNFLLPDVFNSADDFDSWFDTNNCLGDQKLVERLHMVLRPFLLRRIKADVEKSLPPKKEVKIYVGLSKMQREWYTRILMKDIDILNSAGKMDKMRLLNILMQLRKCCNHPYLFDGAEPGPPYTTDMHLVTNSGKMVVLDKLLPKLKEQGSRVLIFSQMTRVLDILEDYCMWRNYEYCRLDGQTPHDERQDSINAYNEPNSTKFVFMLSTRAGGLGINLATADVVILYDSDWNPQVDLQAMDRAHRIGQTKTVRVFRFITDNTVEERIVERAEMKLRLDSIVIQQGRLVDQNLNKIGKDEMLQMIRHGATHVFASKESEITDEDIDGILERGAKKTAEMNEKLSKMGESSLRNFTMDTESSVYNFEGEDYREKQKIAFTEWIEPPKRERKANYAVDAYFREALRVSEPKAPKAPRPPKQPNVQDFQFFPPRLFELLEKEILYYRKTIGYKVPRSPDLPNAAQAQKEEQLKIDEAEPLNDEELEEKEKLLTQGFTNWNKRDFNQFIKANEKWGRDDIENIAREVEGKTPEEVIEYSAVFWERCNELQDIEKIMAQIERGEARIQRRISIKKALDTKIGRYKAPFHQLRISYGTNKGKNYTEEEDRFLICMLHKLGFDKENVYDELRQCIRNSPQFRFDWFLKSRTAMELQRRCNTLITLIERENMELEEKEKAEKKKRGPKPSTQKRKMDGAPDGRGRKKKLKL

In publication doi:10.1101/2021.10.21.465349:

B1: MLLT10 (AF10) (protein, UniProt O54826 1-1068)
chain: MVSSDRPVSLEDEVSHSMKEMIGGCCVCSDERGWAENPLVYCDGHGCSVAVHQACYGIVQVPTGPWFCRKCESQERAARVRCELCPHKDGALKRTDNGGWAHVVCALYIPEVQFANVSTMEPIVLQSVPHDRYNKTCYICDEQGRESKAATGACMTCNKHGCRQAFHVTCAQFAGLLCEEEGNGADNVQYCGYCKYHFSKLKKSKRGSNRSYEQSLSDSSSHSQDKHHEKEKKKYKEKDKHKQKHKKQPEPSPALVPSLTVTTEKTYTSTSNNSISGSLKRLEDTAARFTNANFQEVSAHTSSGKDVSEARGSEGKGKKSSAHSSGQRGRKPGAGRNPGTAVSASSPFPQGSFSGTPGSVKSSSGSSVQSPQDFLSFTDSDLRSDSYTHTQQPSSTKDVHKGESGSQEAAVNSFSSLVGHPVTSTVISQPKSFDNSPGELGSSSLPTAGYKRAQTSGIEEEAVKEKKRKGNKQSKHGPGRPKGNKNQENVSHLSVSSASPTSSVASAAGSVTSSSLQKSPTLLRNGSLQSLSVGSSPVGSEISMQYRHDGACPTTTFSELLNAIHNGIYNSNDVAVSFPNVVSGSGSSTPVSSSHIPQQSSGHLQQVGALSPSAASSVTPAAATTQANTVSGSSLSQAPAHMYGSRLNQNPSMAVLIAQSESSQTDQDLGDNARSLGGRGSSPRGSLSPRSPVSNLQLRYDQPSNSSLETVPPVAASIEQLLERQWSEGQQFLLEQGTPGDILGMLKSLHQLQVENRRLEEQIKNLTAKKERLQLLNAQLSVPFPAITTNPSPSHQMHTYTAQTAPPPDSLNSSKSPHIGNSFLPDNSLPVLNQDLTSSGQSTSSSSALSTPPPAGQSPAQQSSGVSGVQQVNGVTVGALASGMQTVTSTIPAVSAVGGIIGALPGNQLAINGIVGALNGVIQTPVTISQNPAPLTHTSVPPNAAHPMPAAALTNSASGLGLLSDQQRQMFIQQQQFQQLLNSQQLTPEQHQAFLYQLMQQQHHPPELQQLQLPGPTQIPINNLLAGAQAPPLHTATTNPFLTIHGDSTSQKVTRLSDKTGPVAQEKS
B2: HMGA1 (High Mobility Group protein A1) (protein, UniProt P17095 1-107)
chain: MSESGSKSSQPLASKQEKDGTEKRGRGRPRKQPPVSPGTALVGSQKEPSEVPTPKRPRGRPKGSKNKGAAKTRKVTTAPGRKPRGRPKKLEKEEEEGISQESSEEEQ

Legend:
[1] = target: HA-tagged human DOT1L (human) (UniProt Q8TEK3); experiment: affinity purification with mass spectrometry
[2] = target: HA-tagged human DOT1L (human) (UniProt Q8TEK3); experiment: affinity purification with mass spectrometry; remark: listed apart in the source

Row | Molecule | binding [1] | binding [2]
1 | SMARCA5 (SNF2H) (from UniProt Q91ZW3 1-1051) (enzyme) | binds | –
2 | B1 | – | binds
3 | B2 | – | binds

Where two headings read alike, the source gives them in different places. No constants are given. Whether binding was seen depends on the method and setting. Binding seen in cells or lysates may run through a third protein. These calls come from enrichment with a bait or labelling near it, and not all partners need be listed.
